Data as given in US20260216326A1, “METHODS OF TREATING INFLAMMATORY DISEASES WITH COMBINATION OF TL1A INHIBITORS AND S1PR INHIBITORS” (Prometheus Biosciences, Inc., priority 2022, published 2026).
Results are given in words; binding and its absence hold for the method and conditions named. Some binding calls cover weakened binding; strength is not graded here.

Target: T1, DR3 (Death Receptor 3) natively expressed on human TF-1 cells (human) (UniProt Q93038)
T1 sequence (looked up): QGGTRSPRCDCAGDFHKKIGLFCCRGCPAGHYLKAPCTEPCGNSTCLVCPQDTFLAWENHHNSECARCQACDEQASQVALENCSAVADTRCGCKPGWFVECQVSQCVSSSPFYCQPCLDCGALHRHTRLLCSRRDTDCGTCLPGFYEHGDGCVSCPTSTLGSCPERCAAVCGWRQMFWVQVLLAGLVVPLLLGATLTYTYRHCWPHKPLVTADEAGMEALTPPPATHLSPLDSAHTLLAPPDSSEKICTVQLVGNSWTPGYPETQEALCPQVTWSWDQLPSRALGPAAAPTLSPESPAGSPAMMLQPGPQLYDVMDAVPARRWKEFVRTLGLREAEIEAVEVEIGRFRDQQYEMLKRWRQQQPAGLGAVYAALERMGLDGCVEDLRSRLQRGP
Assay: TF-1 cell caspase activation assay

B1: cynomolgus monkey TL1A protein (ligand)
chain: LKGQEFAPSHQQVYAPLRADGDKPRAHLTVVRQTPTQHLKNQFPALHWEHELGLAFTKNRMNYTNKFLLIPESGDYFVYSQVTFRGMTSECSEIRQAGRPNKPDSITVVITKVTDSYPEPTQLLMGTKSVCEVGSNWFQPIYLGAMFSLQEGDKLMVNVSDISLVDYTKEDKTFFGAFLL
In the case of B1, the binding is reported as “binds”.
